PubChem BioAssay AID1671195 – Yale University – 2021
The deposit covers about 22,000 reagents; shown is a part drawn at random. About 1,510 of them (6.9%) were called active. 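Active includes knockdowns raising or lowering LDL uptake; positive z-scores mean more uptake, negative mean less.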 A number with no mark means an inactive call.

Test: 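Knockdowns that increase or decrease uptake of fluorescent LDL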 (primary screen)
System: human Huh7 hepatoma cells
Knock-down reagent: siRNA pool against human genes, 18 nM
Timing: about 2 to 2.5 days of knockdown, then 8 h LDL uptake
Challenge: DiI-labelled LDL at 30 µg/ml for 8 h, in lipoprotein-deficient serum medium
Measurement: 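Fluorescent LDL signal imaged in cells, scaled to the plate median, robust z-score for each replicate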
Direction: robust z-score: higher = more LDL uptake after knockdown
Hit rule: 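a gene counts as active if at least two replicate z-scores exceed ±2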

gene symbol,"robust z-score, replicate 1","robust z-score, replicate 2","robust z-score, replicate 3"
KRT73 (keratin 73),-0.749,-0.845,-0.896
IPO11 (importin 11),-0.649,-0.444,0.125
STAT1 (signal transducer and activator of transcription 1),-0.557,-0.393,0.319
PSD2 (pleckstrin and Sec7 domain containing 2),1.1,-0.533,-0.328
SOD3 (superoxide dismutase 3),1.88,1.19,1.57
YPEL2 (yippee like 2),-0.385,0.171,0.0228
"RELA (RELA proto-oncogene, NF-kB subunit)",-0.684,0.45,-0.375
AAR2 (AAR2 splicing factor),1.18,0.117,-0.671
LOC440347 (retired record),-0.578,-0.0984,-0.718
OR10Q1 (olfactory receptor family 10 subfamily Q member 1),0.366,-0.305,-0.168
TTC21B (tetratricopeptide repeat domain 21B),0.164,0.451,-0.197
MAN2A2 (mannosidase alpha class 2A member 2),0.91,0.962,0.545
PI15 (peptidase inhibitor 15),1.12,1.34,-2.3
AVPR1B (arginine vasopressin receptor 1B),2.22,0.0385,1.72
BBOX1 (gamma-butyrobetaine hydroxylase 1),-2.34 (active),-2.16,-2.12
RIIAD1,-1.87,-1.63,-2.08
NDST1 (N-deacetylase and N-sulfotransferase 1),-1.54,-1.58,-1.31
LOC442431 (retired record),-0.192,-0.247,-0.295
R3HDM2 (R3H domain containing 2),1.17,0.634,0.0586
DMKN (dermokine),1.34,1.06,0.596
IFT20 (intraflagellar transport 20),-1.61,-0.878,-1.18
IQSEC3 (IQ motif and Sec7 domain ArfGEF 3),1.89,2.07,1.8
FUNDC2P1 (FUN14 domain containing 2 pseudogene 1),-0.573,-0.88,-0.724
TPTE (transmembrane phosphatase with tensin homology),-0.781,-0.241,-0.571
TMEM255A (transmembrane protein 255A),-0.633,-0.595,-0.653
LOC440080 (retired record),0.144,0.228,0.431
EPB41L4A-DT (EPB41L4A divergent transcript),0.164 (active),2.44,2.7
LOC441778 (retired record),1.08,1.47,1.44
IRAK4 (interleukin 1 receptor associated kinase 4),0.131,-0.439,-0.876
PTPN22 (protein tyrosine phosphatase non-receptor type 22),-1.17,-0.964,-1.1
GLA (galactosidase alpha),-0.139,-0.296,-0.317
PFDN5 (prefoldin subunit 5),-0.249,-0.566,-0.402
RXFP3 (relaxin family peptide receptor 3),2.05 (active),1.53,2.5
CHTF18 (chromosome transmission fidelity factor 18),4.23 (active),3.78,3.25
TOPBP1 (DNA topoisomerase II binding protein 1),-0.491,-0.681,-0.355
FILIP1 (filamin A interacting protein 1),-1.26,1.06,1.17

Just “robust z-score, replicate 1” (8 entries from above):
RELA (RELA proto-oncogene, NF-kB subunit) = -0.684
AAR2 (AAR2 splicing factor) = 1.18
LOC440347 (retired record) = -0.578
OR10Q1 (olfactory receptor family 10 subfamily Q member 1) = 0.366
TTC21B (tetratricopeptide repeat domain 21B) = 0.164
MAN2A2 (mannosidase alpha class 2A member 2) = 0.91
PI15 (peptidase inhibitor 15) = 1.12
AVPR1B (arginine vasopressin receptor 1B) = 2.22

Additional reagents follow:
gene symbol,"robust z-score, replicate 1","robust z-score, replicate 2","robust z-score, replicate 3"
CUTA (cutA divalent cation tolerance homolog),-0.614,-1.17,-0.56
MRNIP (MRN complex interacting protein),1.4,0.31,1.71
SPMAP2 (sperm microtubule associated protein 2),0.243,-0.591,0.00585
OR5T1 (olfactory receptor family 5 subfamily T member 1),0.897,0.663,0.793
BORCS8-MEF2B (BORCS8-MEF2B readthrough),-0.0283,0.835,0.0171
ZNF774 (zinc finger protein 774),-0.868,-0.945,-0.952
PTCH2 (patched 2),-0.0438,-0.573,0.428
CCNYL1 (cyclin Y like 1),-1.65,-2,-1.26
KLHL29 (kelch like family member 29),-0.527,-1.85,-1.43
BCORP1 (BCL6 corepressor pseudogene 1),-0.354,0.0828,0.0779
FAM240C (family with sequence similarity 240 member C),0.626,0.504,0.475
ENPEP (glutamyl aminopeptidase),1.19,1.12,0.785
"A4GALT (alpha 1,4-galactosyltransferase (P1PK blood group))",0.674,1.82,0.712
ZNF382 (zinc finger protein 382),2.14 (active),1.79,2.27
SSX5 (SSX family member 5),-2.13 (active),-2.01,-2.46
PWWP2B (PWWP domain containing 2B),0.278,0.605,0.853
ZNF239 (zinc finger protein 239),0.406,0.776,0.0504
LOC441339 (retired record),-1.77 (active),-2.45,-2.3
MIDEAS (mitotic deacetylase associated SANT domain protein),-0.412,0.38,-0.191
MRPL50 (mitochondrial ribosomal protein L50),0.699,0.254,0.475
TAS2R19 (taste 2 receptor member 19),0.772,0.689,0.89
NEMF (nuclear export mediator factor),-1.47,-1.13,-1.46
JKAMP (JNK1/MAPK8 associated membrane protein),-0.0293,-1.61,-1
MEP1B (meprin A subunit beta),-0.869,-0.675,-0.479
MT1G (metallothionein 1G),0.593,-1.15,0.202
LOC401234 (retired record),-1.23,-0.885,-0.549
CD300LG (CD300 molecule like family member g),-0.694,-0.262,-0.544
COPB2 (coat protein complex I subunit beta 2),-0.764,-0.825,-0.08
C11orf24 (chromosome 11 open reading frame 24),-0.626,-1.75,-0.557
LOC440008 (retired record),-0.522,-0.0427,-0.685
PRR3 (proline rich 3),-0.642,-0.391,-0.53
RNF169 (ring finger protein 169),-0.256,-0.0368,-0.14
